{"source": "patent US20160158251A1", "about": "“COMPOSITION FOR PREVENTING OR TREATING MUSCULAR ATROPHY OR PROMOTING MUSCULAR REGENERATION IN SUBJECT COMPRISING SULFONAMIDE COMPOUND AND USE THEREOF” (Samsung Electronics Co., Ltd., priority 2014, published 2016)", "format_in_all_cases": "cell-based, mouse", "key": {"MuRF-1": {"tested_on": "MuRF-1", "assay": "MuRF-1 mRNA expression in differentiated C2C12 cells treated with dexamethasone (real time PCR)", "conditions": "only dexamethasone 2 μM, 24 hours (FIG. 2B)", "experimental": "(§1) C2C12 cell lines (mouse gastrocnemius muscle, ATCC® CRL-1772™) were seeded in a 10% FBS/DMEM and incubated at 37° C. in a 5% CO2 incubator. When the cells were 70% confluent, the culture medium was replaced with 2% FBS/DMEM and the cells were cultured for 4 days to completely induce differentiation into muscle cells. C2C12 cell lines are mouse myoblast cell lines obtained by continuous culture of myoblast cells cultured from gastrocnemius muscle of C3H mice.\n(§2) When C2C12 cells were completely differentiated into muscle cells, the culture medium was removed therefrom, and 4 ml of a fresh culture medium including 1 μM, 10 μM, or 100 μM of sulfadiazine (Sigma Aldrich) was added thereto, and then, the cells were cultured at 37° C. in a 5% CO2 incubator for 24 hours. […]\n(§3) A Trizol reagent (Invitrogen) was added to the collected cells, and total RNA was separated therefrom according to manufacturer's protocols. […] Amounts of mRNA of Atrogin-1 and MuRF-1 were quantified using a real time PCR device (MyiQPCR instrument, BioRad) that is a device measuring SYBR Green. […]\n(§4) Values obtained via amplification were normalized to GAPDH gene expression, and relative expression levels of mRNA of Atrogin-1 and MURF-1 were quantified. The quantified relative expression levels (arbitrary unit (AU)) of mRNA of Atrogin-1 and MURF-1 are illustrated in FIGS. 2A and 2B, respectively (*: p<0.05 vs. dexamethasone)"}, "Atrogin-1": {"tested_on": "Atrogin-1", "assay": "Atrogin-1 mRNA expression in differentiated C2C12 cells treated with dexamethasone (real time PCR)", "conditions": "only dexamethasone 2 μM, 24 hours (FIG. 2A)", "experimental": "as §1, §2, §3, §4"}, "C2C12 cells": {"tested_on": "C2C12 cells", "assay": "Diameter of muscle fibers of differentiated C2C12 cells treated with dexamethasone", "conditions": "only dexamethasone 2 μM, 24 hours, not sulfadiazine (FIG. 3)"}}, "note": "At least one compound was matched to its structure with a doubt left."}
{"smiles": "C[C@@H]1C[C@H]2[C@@H]3CCC4=CC(=O)C=C[C@]4(C)[C@@]3(F)[C@@H](O)C[C@]2(C)[C@@]1(O)C(=O)CO", "note": "[dexamethasone]", "values": [{"measurement": "expression level of MuRF1", "setting": "MuRF-1", "result": "increased"}, {"measurement": "expression level of Atrogin-1", "setting": "Atrogin-1", "result": "increased"}, {"measurement": "diameter of the muscle fiber", "setting": "C2C12 cells", "result": "reduced"}]}
